Measurements from article PMC4013717, “AFF4 binding to Tat-P-TEFb indirectly stimulates TAR recognition of super elongation complexes at the HIV promoter” (eLife, 2014).
These are yes or no findings as the source states them, for the method shown. For some of these results: In cells and extracts the contact can be indirect. Some binding calls cover weakened binding; strength is not graded here.

By UniProt entry, the sequences of proteins in these tests, tags left out. Where a name states a change or a piece, a line headed by the entry shows the natural chain unless it says otherwise. Chains listed by the source or under a name are the forms on record and can include a tag or linker. Residues count along the entry.
Flag-tagged truncated AFF1 (residues 1–308), WT (P51825, residues 1-308): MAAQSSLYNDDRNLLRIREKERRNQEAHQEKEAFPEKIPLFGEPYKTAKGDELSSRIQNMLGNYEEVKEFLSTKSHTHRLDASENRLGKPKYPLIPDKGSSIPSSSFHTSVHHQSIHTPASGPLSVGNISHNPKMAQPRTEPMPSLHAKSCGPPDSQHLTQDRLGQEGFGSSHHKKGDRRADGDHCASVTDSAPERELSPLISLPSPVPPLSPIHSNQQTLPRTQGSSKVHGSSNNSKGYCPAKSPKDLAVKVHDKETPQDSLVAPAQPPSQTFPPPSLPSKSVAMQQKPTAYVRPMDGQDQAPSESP
Flag-tagged truncated AFF1 (residues 1–308) F70A (P51825, form named): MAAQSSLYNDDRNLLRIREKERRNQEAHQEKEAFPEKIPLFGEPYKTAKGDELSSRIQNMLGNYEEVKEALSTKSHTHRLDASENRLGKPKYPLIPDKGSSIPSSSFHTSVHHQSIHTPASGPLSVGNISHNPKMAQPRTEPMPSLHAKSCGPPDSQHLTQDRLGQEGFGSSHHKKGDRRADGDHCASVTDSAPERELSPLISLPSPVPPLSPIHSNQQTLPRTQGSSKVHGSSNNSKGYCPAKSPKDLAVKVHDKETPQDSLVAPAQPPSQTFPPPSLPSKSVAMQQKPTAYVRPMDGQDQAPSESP
Flag-tagged truncated AFF1 (residues 1–308) V67A (P51825, form named): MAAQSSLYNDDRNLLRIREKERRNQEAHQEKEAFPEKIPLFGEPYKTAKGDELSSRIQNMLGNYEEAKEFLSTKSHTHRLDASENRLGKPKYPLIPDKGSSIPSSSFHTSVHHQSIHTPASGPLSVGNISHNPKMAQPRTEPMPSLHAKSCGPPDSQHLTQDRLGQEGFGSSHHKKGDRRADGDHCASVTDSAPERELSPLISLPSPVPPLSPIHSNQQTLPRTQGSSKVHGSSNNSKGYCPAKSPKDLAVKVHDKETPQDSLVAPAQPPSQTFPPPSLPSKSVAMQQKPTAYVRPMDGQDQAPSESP
Flag-tagged truncated AFF1 (residues 1–308) V67A/F70A (P51825, form named): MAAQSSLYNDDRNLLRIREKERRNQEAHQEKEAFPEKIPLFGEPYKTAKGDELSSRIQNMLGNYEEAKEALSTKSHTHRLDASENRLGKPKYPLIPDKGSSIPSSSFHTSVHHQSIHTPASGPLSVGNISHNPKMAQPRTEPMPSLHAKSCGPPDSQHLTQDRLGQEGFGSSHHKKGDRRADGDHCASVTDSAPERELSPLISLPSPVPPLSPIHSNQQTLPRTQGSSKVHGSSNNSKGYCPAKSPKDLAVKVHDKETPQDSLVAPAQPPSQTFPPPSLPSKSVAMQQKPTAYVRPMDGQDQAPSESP
UniProt O60563, residues 1-264: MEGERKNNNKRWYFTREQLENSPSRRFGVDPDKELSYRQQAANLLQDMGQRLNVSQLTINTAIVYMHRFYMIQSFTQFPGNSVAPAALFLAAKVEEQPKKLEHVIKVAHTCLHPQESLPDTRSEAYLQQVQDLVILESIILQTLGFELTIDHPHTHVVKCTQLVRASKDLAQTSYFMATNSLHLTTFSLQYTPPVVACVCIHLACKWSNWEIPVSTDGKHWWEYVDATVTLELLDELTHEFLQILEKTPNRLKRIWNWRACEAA
UniProt P04608, residues 1-57: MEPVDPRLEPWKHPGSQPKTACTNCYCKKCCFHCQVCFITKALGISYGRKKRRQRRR
UniProt P50750: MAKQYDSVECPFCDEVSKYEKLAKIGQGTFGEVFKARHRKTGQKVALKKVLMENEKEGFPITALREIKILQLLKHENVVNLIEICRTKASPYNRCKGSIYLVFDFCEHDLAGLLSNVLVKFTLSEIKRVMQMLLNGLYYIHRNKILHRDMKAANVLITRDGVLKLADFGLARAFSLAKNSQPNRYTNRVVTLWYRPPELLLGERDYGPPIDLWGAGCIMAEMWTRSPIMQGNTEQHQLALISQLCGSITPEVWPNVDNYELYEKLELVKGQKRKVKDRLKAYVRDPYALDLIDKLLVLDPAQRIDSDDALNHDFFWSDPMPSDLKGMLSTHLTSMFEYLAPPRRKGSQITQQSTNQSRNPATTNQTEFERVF

Key:
[1] = molecular target: Flag-tagged truncated AFF1 (residues 1–308) F70A (UniProt P51825); assay: co-IP; anti-Flag immunoprecipitates from nuclear extracts of HeLa cells expressing Flag-tagged AFF1 (residues 1–308); Western blot
[2] = molecular target: Flag-tagged truncated AFF1 (residues 1–308), WT (UniProt P51825); assay: as above
[3] = molecular target: Flag-tagged truncated AFF1 (residues 1–308) V67A (UniProt P51825); assay: as above
[4] = molecular target: Flag-tagged truncated AFF1 (residues 1–308) V67A/F70A (UniProt P51825); assay: as above
[5] = molecular target: human cyclin T1 1–264 (human) (UniProt O60563); assay: crystal structure; quaternary complex of Tat 1–57, AFF4 2–73, CDK9 1–330 and CycT1 1–264; 3.0 Å; three complexes in the a.u.; crystals from 2.4 M sodium formate, 10 mM MgCl2 at 18°C; both purified
[6] = molecular target: Tat-P-TEFb complex (HIV-1 Tat 1–57, CDK9 1–330, cyclin T1 1–264) (HIV-1 | human) (UniProt P04608); assay: as above
[7] = molecular target: HIV-1 Tat 1–57 (HIV-1) (UniProt P04608); assay: as above

CDK9 in HeLa nuclear extract (from UniProt P50750 1-372)
binding [1]: binds
binding [2]: binds
binding [3]: binds
binding [4]: binds

HIV-1 Tat 1–57 (from UniProt P04608 1-57) (domain or fragment)
binding [5]: binds

B1: AFF4 fragment 2–73 (domain or fragment, UniProt Q9UHB7 2-73, looked up)
chain: NREDRNVLRMKERERRNQEIQQGEDAFPPSSPLFAEPYKVTSKEDKLSSRIQSMLGNYDEMKDFIGDRSIPK
notes: AFF4 (SEC scaffold), residues 2-73; The His-tag is TEV-protease-cleavable; also called AFF4_(2–73); source: E. coli, purified
binding [6]: binds
binding [7]: binds
